Data reported in the supplement of paper PMC10060354, “Discovery of a small molecule ligand of FRS2 that inhibits invasion and tumor growth” (Cellular Oncology, 2022).
Single values are uncertain, as repeats are few or missing.

By UniProt entry, the sequences of proteins in these tests, tags left out. Where a name states a change or a piece, a line headed by the entry shows the natural chain unless it says otherwise.
UniProt O00159, whole entry: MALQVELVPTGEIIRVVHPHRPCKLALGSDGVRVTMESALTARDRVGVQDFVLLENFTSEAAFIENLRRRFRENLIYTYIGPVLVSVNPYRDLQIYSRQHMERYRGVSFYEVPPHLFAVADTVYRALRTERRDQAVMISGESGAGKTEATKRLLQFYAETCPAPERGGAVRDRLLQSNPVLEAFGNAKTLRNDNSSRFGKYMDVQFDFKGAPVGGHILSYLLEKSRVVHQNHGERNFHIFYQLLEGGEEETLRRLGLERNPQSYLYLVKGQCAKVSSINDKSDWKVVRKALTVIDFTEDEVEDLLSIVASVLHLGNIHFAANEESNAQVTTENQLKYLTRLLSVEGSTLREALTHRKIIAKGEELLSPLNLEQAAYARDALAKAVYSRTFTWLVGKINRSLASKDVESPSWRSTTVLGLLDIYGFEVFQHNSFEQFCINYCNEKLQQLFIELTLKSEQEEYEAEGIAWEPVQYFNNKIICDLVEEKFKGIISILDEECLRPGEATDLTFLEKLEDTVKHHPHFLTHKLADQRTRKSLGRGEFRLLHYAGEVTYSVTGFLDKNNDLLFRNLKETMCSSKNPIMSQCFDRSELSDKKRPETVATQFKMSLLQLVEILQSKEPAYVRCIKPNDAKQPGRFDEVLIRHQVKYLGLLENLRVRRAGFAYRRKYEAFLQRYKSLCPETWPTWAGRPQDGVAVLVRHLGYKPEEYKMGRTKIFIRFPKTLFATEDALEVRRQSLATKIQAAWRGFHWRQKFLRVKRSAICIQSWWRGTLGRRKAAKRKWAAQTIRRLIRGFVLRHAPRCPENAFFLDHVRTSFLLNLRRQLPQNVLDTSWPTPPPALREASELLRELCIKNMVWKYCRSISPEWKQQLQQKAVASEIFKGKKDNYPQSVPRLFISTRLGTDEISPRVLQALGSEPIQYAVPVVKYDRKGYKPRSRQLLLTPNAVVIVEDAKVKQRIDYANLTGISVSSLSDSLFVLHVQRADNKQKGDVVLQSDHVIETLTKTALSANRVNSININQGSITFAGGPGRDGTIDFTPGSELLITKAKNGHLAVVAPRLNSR
UniProt Q96BM9: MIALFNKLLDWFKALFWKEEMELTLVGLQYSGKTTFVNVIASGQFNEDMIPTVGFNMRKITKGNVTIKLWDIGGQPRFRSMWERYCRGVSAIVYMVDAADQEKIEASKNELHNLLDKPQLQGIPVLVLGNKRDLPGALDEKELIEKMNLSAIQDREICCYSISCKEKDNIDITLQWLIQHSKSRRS
UniProt Q13443: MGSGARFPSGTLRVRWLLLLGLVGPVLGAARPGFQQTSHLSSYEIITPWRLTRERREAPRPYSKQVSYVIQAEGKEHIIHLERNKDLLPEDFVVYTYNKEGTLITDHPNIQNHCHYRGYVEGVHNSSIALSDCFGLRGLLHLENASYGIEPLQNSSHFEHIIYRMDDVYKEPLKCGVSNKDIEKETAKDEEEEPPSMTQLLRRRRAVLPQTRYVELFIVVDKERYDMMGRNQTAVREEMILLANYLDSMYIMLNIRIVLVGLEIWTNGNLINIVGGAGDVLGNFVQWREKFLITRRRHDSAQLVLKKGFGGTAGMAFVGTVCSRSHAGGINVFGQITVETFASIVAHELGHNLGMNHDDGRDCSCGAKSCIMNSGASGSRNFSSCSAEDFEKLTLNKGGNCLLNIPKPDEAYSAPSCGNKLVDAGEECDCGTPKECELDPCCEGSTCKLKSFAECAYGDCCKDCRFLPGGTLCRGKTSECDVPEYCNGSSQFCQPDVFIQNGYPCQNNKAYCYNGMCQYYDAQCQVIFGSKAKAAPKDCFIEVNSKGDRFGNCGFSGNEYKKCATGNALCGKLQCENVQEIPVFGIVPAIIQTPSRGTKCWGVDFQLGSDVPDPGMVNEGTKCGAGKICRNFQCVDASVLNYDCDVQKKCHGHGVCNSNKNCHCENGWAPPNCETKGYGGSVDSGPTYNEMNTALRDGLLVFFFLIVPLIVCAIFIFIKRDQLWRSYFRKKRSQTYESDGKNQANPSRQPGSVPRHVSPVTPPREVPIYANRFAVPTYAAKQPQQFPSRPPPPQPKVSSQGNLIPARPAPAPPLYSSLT
UniProt O60840, whole entry: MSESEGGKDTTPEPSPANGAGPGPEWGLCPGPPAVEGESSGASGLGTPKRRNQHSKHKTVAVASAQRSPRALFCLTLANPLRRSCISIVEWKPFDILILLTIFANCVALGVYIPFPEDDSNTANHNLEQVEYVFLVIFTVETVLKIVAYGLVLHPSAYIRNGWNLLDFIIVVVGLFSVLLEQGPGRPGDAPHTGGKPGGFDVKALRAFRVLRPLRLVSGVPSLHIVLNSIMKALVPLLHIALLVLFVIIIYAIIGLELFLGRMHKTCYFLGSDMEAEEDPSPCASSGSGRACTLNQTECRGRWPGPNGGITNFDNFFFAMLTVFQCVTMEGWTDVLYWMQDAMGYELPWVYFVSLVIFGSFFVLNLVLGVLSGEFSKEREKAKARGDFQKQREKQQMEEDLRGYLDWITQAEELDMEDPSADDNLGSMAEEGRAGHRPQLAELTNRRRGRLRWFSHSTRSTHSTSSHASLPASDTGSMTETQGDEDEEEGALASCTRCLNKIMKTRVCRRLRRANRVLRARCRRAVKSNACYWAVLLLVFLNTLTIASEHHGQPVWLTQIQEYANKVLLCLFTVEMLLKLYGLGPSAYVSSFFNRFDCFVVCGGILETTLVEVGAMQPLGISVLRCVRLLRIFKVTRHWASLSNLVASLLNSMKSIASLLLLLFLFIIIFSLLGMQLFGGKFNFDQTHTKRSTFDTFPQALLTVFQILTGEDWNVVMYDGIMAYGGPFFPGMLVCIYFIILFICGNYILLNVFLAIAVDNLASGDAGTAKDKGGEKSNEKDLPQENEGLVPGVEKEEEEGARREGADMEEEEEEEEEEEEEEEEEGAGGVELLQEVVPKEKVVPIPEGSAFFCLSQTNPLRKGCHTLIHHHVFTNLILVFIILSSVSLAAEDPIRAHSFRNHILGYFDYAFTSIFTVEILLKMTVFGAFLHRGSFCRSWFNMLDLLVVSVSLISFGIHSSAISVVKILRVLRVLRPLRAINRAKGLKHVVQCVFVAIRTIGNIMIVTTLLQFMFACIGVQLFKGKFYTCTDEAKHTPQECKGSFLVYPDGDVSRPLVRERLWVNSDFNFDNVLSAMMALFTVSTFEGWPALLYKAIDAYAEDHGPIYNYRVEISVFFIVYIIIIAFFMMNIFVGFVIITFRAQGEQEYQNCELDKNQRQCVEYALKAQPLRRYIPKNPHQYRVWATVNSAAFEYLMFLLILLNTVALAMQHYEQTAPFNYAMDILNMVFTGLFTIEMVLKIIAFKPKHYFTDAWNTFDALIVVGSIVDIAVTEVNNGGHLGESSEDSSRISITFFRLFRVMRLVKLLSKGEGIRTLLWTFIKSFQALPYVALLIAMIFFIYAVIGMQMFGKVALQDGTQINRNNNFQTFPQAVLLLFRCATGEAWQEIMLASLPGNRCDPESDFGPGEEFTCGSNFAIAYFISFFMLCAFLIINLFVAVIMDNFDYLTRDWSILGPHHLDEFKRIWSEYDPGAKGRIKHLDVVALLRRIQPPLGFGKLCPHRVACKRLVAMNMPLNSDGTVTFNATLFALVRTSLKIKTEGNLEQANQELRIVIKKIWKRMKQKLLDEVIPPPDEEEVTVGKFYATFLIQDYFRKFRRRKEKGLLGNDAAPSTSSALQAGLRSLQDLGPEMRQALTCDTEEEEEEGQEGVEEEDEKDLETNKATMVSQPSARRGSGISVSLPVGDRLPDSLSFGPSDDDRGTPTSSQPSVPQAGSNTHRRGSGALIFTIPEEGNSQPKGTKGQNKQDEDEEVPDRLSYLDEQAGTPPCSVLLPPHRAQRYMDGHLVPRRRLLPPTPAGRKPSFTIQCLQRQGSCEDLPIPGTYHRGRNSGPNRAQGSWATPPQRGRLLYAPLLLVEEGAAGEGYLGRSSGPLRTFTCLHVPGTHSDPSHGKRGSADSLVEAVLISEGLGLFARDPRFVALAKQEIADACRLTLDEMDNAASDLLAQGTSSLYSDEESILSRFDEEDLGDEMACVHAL
UniProt O43929: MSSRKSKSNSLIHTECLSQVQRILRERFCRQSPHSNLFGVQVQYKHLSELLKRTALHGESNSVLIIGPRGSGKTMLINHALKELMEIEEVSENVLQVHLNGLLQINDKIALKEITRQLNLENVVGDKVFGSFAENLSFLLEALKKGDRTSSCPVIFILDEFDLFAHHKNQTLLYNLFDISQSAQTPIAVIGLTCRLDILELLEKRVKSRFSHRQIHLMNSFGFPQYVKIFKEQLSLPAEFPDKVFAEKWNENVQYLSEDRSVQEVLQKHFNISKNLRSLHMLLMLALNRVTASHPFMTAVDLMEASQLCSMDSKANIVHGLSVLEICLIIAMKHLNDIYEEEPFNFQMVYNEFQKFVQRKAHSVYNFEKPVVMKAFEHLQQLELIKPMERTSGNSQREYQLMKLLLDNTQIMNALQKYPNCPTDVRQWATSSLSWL
UniProt Q02818: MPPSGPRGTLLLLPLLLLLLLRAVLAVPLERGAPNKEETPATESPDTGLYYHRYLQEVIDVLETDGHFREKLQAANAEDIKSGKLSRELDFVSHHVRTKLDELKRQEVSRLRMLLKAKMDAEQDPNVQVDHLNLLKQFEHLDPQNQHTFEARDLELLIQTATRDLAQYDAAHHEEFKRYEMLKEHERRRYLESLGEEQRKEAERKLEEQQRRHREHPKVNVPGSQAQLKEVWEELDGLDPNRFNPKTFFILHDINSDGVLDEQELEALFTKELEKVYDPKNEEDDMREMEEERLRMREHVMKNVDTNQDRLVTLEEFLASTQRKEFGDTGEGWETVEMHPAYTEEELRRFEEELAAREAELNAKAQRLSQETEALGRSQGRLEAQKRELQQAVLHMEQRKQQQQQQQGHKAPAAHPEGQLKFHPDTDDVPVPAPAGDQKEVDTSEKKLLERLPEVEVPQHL
UniProt P51608, whole entry: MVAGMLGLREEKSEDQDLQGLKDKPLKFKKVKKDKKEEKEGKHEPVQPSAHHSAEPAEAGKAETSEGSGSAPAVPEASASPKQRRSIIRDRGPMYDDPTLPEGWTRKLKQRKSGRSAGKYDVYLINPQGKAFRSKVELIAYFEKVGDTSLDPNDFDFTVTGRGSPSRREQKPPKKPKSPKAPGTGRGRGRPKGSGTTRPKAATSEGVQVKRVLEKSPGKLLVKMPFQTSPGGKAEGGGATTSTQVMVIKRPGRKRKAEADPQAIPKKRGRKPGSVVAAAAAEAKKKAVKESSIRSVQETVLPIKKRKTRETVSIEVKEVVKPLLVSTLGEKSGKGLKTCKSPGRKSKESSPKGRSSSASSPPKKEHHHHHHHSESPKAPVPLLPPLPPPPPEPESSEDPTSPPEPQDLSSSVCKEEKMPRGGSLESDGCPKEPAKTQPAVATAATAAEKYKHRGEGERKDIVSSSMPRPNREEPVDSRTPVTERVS
UniProt Q9BQE4, whole entry: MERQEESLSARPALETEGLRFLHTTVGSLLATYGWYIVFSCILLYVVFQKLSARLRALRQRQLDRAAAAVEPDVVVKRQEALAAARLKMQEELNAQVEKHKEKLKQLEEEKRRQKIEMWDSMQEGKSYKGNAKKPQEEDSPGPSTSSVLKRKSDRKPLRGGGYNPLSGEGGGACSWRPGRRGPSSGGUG
UniProt Q14974, whole entry: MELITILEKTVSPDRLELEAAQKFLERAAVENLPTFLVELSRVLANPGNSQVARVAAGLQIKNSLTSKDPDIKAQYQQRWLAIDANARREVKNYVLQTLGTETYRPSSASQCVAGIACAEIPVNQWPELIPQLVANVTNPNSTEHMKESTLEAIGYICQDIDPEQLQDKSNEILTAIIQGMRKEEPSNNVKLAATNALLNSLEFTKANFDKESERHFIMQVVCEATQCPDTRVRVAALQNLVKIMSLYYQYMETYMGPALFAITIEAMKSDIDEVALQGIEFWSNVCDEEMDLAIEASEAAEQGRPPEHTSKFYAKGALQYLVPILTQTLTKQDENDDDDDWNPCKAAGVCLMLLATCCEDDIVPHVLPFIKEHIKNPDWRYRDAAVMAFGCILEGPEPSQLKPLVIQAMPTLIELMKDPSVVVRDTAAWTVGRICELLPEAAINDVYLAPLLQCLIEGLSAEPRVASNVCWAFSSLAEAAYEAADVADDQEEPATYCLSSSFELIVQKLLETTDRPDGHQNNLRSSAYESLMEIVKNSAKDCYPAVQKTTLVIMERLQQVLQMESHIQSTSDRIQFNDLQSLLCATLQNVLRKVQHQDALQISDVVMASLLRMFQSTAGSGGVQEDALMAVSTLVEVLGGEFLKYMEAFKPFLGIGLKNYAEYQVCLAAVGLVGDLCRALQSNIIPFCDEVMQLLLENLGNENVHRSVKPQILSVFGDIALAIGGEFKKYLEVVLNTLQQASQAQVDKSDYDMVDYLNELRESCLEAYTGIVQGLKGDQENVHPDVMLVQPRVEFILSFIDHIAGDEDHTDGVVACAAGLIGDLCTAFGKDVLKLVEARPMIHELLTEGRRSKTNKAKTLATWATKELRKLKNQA

Compound: [O-][N+](C(C1=C(C(O)=C2)NC(C(C=C3)=CC=C3Cl)C4C1C=CC4)=C2Cl)=O
Assay: melting temperature shift (compound 7 minus DMSO); higher = compound stabilises the protein
Settings: 10 µM
Experimental: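 Thermal proteome profiling (TMT mass spectrometry) in intact DAOY medulloblastoma cells or DAOY lysates treated with 10 µM compound 7 or DMSO, heated at 10 temperatures from 40.5 to 73.8 °C for 3 min. Melting curves were fitted with the Bioconductor TPP package, and the melting point difference between compound and vehicle is reported per protein (single curve per condition).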

[1] = system: DAOY cell lysate, treatment time: 20 min, 4 °C
[2] = system: intact DAOY cells, treatment time: 90 min, 37 °C

**Q.** With C11ORF98 (UniProt E9PRG8) as the target, how does the melting temperature shift [1] read?
**A.** 2.08 °C

**Q.** With ARHGAP18 (UniProt Q8N392) as the target, how does the melting temperature shift [1] read?
**A.** -0.287 °C

**Q.** And the melting temperature shift [2]?
**A.** -1.27 °C

**Q.** Which melting temperature shift [1] does the source give for UniProt Q76FK4 here?
**A.** 0.821 °C

**Q.** For TMEM192 (UniProt Q8IY95), which melting temperature shift [1] is on record?
**A.** -0.425 °C

**Q.** What does the source list for HINT3 (UniProt Q9NQE9)?
**A.** melting temperature shift [1]: 2.06 °C; melting temperature shift [2]: -0.35 °C

**Q.** For PON2 (UniProt Q15165), which melting temperature shift [1] is on record?
**A.** 1.04 °C

**Q.** And the melting temperature shift [2]?
**A.** -0.599 °C

**Q.** Which melting temperature shift [1] does the source give for C11ORF54 (UniProt Q9H0W9) here?
**A.** -0.238 °C

**Q.** What about the melting temperature shift [2] of the same target?
**A.** -2.37 °C

**Q.** Which melting temperature shift [1] does the source give for LRBA (UniProt P50851) here?
**A.** -1.03 °C

**Q.** And the melting temperature shift [2]?
**A.** -0.526 °C

**Q.** For CCNB2 (UniProt O95067), which melting temperature shift [1] is on record?
**A.** 0.567 °C

**Q.** And the melting temperature shift [2]?
**A.** 0.0336 °C

**Q.** For UniProt Q86SG3, which melting temperature shift [1] is on record?
**A.** -0.339 °C

**Q.** For MYO1C (UniProt O00159), which melting temperature shift [1] is on record?
**A.** 0.126 °C

**Q.** And the melting temperature shift [2]?
**A.** -1.09 °C

**Q.** What does the source list for UniProt Q5R372?
**A.** melting temperature shift [1]: 0.29 °C; melting temperature shift [2]: 0.75 °C

**Q.** How did the melting temperature shift [1] turn out when MRPL19 (UniProt P49406) was run?
**A.** -0.717 °C

**Q.** And the melting temperature shift [2]?
**A.** -1 °C

**Q.** Which melting temperature shift [1] does the source give for SRP19 (UniProt P09132) here?
**A.** -0.935 °C

**Q.** And the melting temperature shift [2]?
**A.** -1.19 °C

**Q.** With GTF2H1 (UniProt P32780) as the target, how does the melting temperature shift [1] read?
**A.** 0.0329 °C

**Q.** Which results are given for PTGES2 (UniProt Q9H7Z7)?
**A.** melting temperature shift [1]: 0.84 °C; melting temperature shift [2]: 0.309 °C

**Q.** For HLCS (UniProt P50747), which melting temperature shift [1] is on record?
**A.** -0.255 °C

**Q.** And the melting temperature shift [2]?
**A.** 0.0907 °C

**Q.** Which melting temperature shift [2] does the source give for GPT2 (UniProt Q8TD30) here?
**A.** 0.915 °C

**Q.** EXOSC2 (UniProt Q13868) was tested. Which melting temperature shift [1] did it give?
**A.** -1.12 °C

**Q.** And the melting temperature shift [2]?
**A.** -0.452 °C

**Q.** How did the melting temperature shift [1] turn out when ARL8A (UniProt Q96BM9) was run?
**A.** -2.6 °C

**Q.** And the melting temperature shift [2]?
**A.** -0.7 °C

**Q.** Which results are given for ADAM9 (UniProt Q13443)?
**A.** melting temperature shift [1]: 1.14 °C; melting temperature shift [2]: -0.339 °C

**Q.** UniProt O60840 was tested. Which melting temperature shift [2] did it give?
**A.** -0.278 °C

**Q.** With ORC4 (UniProt O43929) as the target, how does the melting temperature shift [1] read?
**A.** -0.335 °C

**Q.** What about the melting temperature shift [2] of the same target?
**A.** -0.29 °C

**Q.** How did the melting temperature shift [1] turn out when UniProt P54274 was run?
**A.** -1.89 °C

**Q.** Which melting temperature shift [1] does the source give for UniProt P84022 here?
**A.** 0.205 °C

**Q.** What about the melting temperature shift [2] of the same target?
**A.** -0.134 °C

**Q.** RPS19 (UniProt P39019) was tested. Which melting temperature shift [1] did it give?
**A.** 0.895 °C

**Q.** What about the melting temperature shift [2] of the same target?
**A.** -0.328 °C

**Q.** Which melting temperature shift [1] does the source give for PTGR1 (UniProt Q14914) here?
**A.** -0.741 °C

**Q.** What about the melting temperature shift [2] of the same target?
**A.** -2.06 °C

**Q.** For RBMS1 (UniProt P29558), which melting temperature shift [1] is on record?
**A.** 0.591 °C

**Q.** And the melting temperature shift [2]?
**A.** -0.138 °C

**Q.** Which melting temperature shift [1] does the source give for NUP107 (UniProt P57740) here?
**A.** -0.704 °C

**Q.** And the melting temperature shift [2]?
**A.** -0.306 °C

**Q.** NUCB1 (UniProt Q02818) was tested. Which melting temperature shift [1] did it give?
**A.** 0.685 °C

**Q.** For SLC25A11 (UniProt Q02978), which melting temperature shift [1] is on record?
**A.** 0.272 °C

**Q.** How did the melting temperature shift [1] turn out when HM13 (UniProt Q8TCT9) was run?
**A.** 2.03 °C

**Q.** And the melting temperature shift [2]?
**A.** -3.83 °C

**Q.** How did the melting temperature shift [1] turn out when PIK3R4 (UniProt Q99570) was run?
**A.** -0.692 °C

**Q.** What about the melting temperature shift [2] of the same target?
**A.** 0.072 °C

**Q.** With MECP2 (UniProt P51608) as the target, how does the melting temperature shift [1] read?
**A.** 0.809 °C

**Q.** What about the melting temperature shift [2] of the same target?
**A.** -0.744 °C

**Q.** How did the melting temperature shift [2] turn out when UniProt Q9C0D9 was run?
**A.** -0.994 °C

**Q.** For ITFG1 (UniProt Q8TB96), which melting temperature shift [1] is on record?
**A.** -0.927 °C

**Q.** How did the melting temperature shift [1] turn out when UniProt Q562R1 was run?
**A.** -1.75 °C

**Q.** What about the melting temperature shift [2] of the same target?
**A.** 4.81 °C

**Q.** What does the source list for HSPA4L (UniProt O95757)?
**A.** melting temperature shift [1]: -0.318 °C; melting temperature shift [2]: -0.628 °C

**Q.** ERAL1 (UniProt O75616) was tested. Which melting temperature shift [2] did it give?
**A.** 1.91 °C

**Q.** Which results are given for UBE2T (UniProt Q9NPD8)?
**A.** melting temperature shift [1]: -0.122 °C; melting temperature shift [2]: -0.658 °C

**Q.** Which melting temperature shift [1] does the source give for MTR (UniProt Q99707) here?
**A.** -0.672 °C

**Q.** What about the melting temperature shift [2] of the same target?
**A.** 0.574 °C

**Q.** Which melting temperature shift [2] does the source give for UniProt Q96J87 here?
**A.** 0.0268 °C

**Q.** With PSME2 (UniProt Q9UL46) as the target, how does the melting temperature shift [1] read?
**A.** -1.2 °C

**Q.** What about the melting temperature shift [2] of the same target?
**A.** -0.248 °C

**Q.** For UniProt Q8N1I0, which melting temperature shift [1] is on record?
**A.** -1.2 °C

**Q.** How did the melting temperature shift [1] turn out when VIMP (UniProt Q9BQE4) was run?
**A.** 3.05 °C

**Q.** With UniProt Q9H4E5 as the target, how does the melting temperature shift [2] read?
**A.** -2.07 °C

**Q.** Which melting temperature shift [2] does the source give for PTER (UniProt Q96BW5) here?
**A.** 0.751 °C

**Q.** With KPNB1 (UniProt Q14974) as the target, how does the melting temperature shift [1] read?
**A.** -0.0537 °C

**Q.** What about the melting temperature shift [2] of the same target?
**A.** 0.0097 °C
